Measurements: the supplement of paper PMC8728848
This is one part of the list.

Legend:
Experiment in all cases: glycan array binding signal (z-score within array); higher = stronger binding
Settings in all cases: glycan notation: IUPAC condensed, linker removed
[1] = target: Neu5Ac(a2-3)Gal(b1-3)GalNAc
How it was run: (§1)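 Columns mapping to the same glycan were averaged after glycan names were converted to IUPAC-condensed notation. The data come from 3228 arrays in the Consortium for Functional Glycomics database, limited to those with an available protein sequence. Binding is reported as a within-array Z-score averaged across arrays of one protein sequence and across linkers.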

[2] = target: Neu5Ac(a2-3)Gal(b1-3)GalNAc(b1-3)Gal(a1-4)Gal(b1-4)Glc
How it was run: as §1

[3] = target: Neu5Ac(a2-3)Gal(b1-3)GalNAc(b1-4)[Neu5Ac(a2-3)]Gal(b1-4)Glc
How it was run: as §1

[4] = target: Neu5Ac(a2-3)Gal(b1-3)GalNAc(b1-4)[Neu5Ac(a2-8)Neu5Ac(a2-3)]Gal(b1-4)Glc
How it was run: as §1

[5] = target: Neu5Ac(a2-3)Gal(b1-3)GalNAc6S
How it was run: as §1

[6] = target: Neu5Ac(a2-3)Gal(b1-3)GlcNAc
How it was run: as §1

[7] = target: Neu5Ac(a2-3)Gal(b1-3)GlcNAc(b1-2)Man
How it was run: as §1

[8] = target: Neu5Ac(a2-3)Gal(b1-3)GlcNAc(b1-2)Man(a1-3)[GlcNAc(b1-4)][Neu5Ac(a2-3)Gal(b1-3)GlcNAc(b1-2)Man(a1-6)]Man(b1-4)GlcNAc(b1-4)GlcNAc
How it was run: as §1

[9] = target: Neu5Ac(a2-3)Gal(b1-3)GlcNAc(b1-2)Man(a1-3)[Neu5Ac(a2-3)Gal(b1-3)GlcNAc(b1-2)Man(a1-6)]Man(b1-4)GlcNAc(b1-4)GlcNAc
How it was run: as §1

[10] = target: Neu5Ac(a2-3)Gal(b1-3)GlcNAc(b1-3)Gal(b1-3)GlcNAc
How it was run: as §1

[11] = target: Neu5Ac(a2-3)Gal(b1-3)GlcNAc(b1-3)Gal(b1-4)GlcNAc
How it was run: as §1

[12] = target: Neu5Ac(a2-3)Gal(b1-3)GlcNAc(b1-3)GalNAc
How it was run: as §1

[13] = target: Neu5Ac(a2-3)Gal(b1-3)GlcNAc(b1-4)Gal(b1-4)Glc
How it was run: as §1

[14] = target: Neu5Ac(a2-3)Gal(b1-3)GlcNAc(b1-6)GalNAc
How it was run: as §1

[15] = target: Neu5Ac(a2-3)Gal(b1-3)GlcNAc6S
How it was run: as §1

[16] = target: Neu5Ac(a2-3)Gal(b1-3)[Fuc(a1-4)]GlcNAc
How it was run: as §1

[17] = target: Neu5Ac(a2-3)Gal(b1-3)[Fuc(a1-4)]GlcNAc(b1-3)Gal(b1-3)[Fuc(a1-4)]GlcNAc
How it was run: as §1

[18] = target: Neu5Ac(a2-3)Gal(b1-3)[Fuc(a1-4)]GlcNAc(b1-3)Gal(b1-4)[Fuc(a1-3)]GlcNAc
How it was run: as §1

[19] = target: Neu5Ac(a2-3)Gal(b1-3)[GlcNAc(b1-6)]GalNAc
How it was run: as §1

[20] = target: Neu5Ac(a2-3)Gal(b1-3)[Neu5Ac(a2-6)]GalNAc
How it was run: as §1

[21] = target: Neu5Ac(a2-3)Gal(b1-3)[Neu5Ac(a2-6)]GlcNAc(b1-3)[Fuc(a1-3)[Gal(b1-4)]GlcNAc(b1-6)]Gal(b1-4)Glc
How it was run: as §1

[22] = target: Neu5Ac(a2-3)Gal(b1-3)]Neu5Ac(a2-3)Gal(b1-4)]GlcNAc
How it was run: as §1

[23] = target: Neu5Ac(a2-3)Gal(b1-4)Glc
How it was run: as §1

[24] = target: Neu5Ac(a2-3)Gal(b1-4)GlcNAc
How it was run: as §1

[25] = target: Neu5Ac(a2-3)Gal(b1-4)GlcNAc(b1-2)Man
How it was run: as §1

[26] = target: Neu5Ac(a2-3)Gal(b1-4)GlcNAc(b1-2)Man(a1-3)[GlcNAc(b1-4)][Neu5Ac(a2-3)Gal(b1-4)GlcNAc(b1-2)Man(a1-6)]Man(b1-4)GlcNAc(b1-4)GlcNAc
How it was run: as §1

[27] = target: Neu5Ac(a2-3)Gal(b1-4)GlcNAc(b1-2)Man(a1-3)[Neu5Ac(a2-3)Gal(b1-4)GlcNAc(b1-2)Man(a1-6)]Man(b1-4)GlcNAc(b1-4)GlcNAc
How it was run: as §1

[28] = target: Neu5Ac(a2-3)Gal(b1-4)GlcNAc(b1-2)Man(a1-3)[Neu5Ac(a2-3)Gal(b1-4)GlcNAc(b1-2)Man(a1-6)]Man(b1-4)GlcNAc(b1-4)[Fuc(a1-6)]GlcNAc
How it was run: as §1

[29] = target: Neu5Ac(a2-3)Gal(b1-4)GlcNAc(b1-2)Man(a1-3)[Neu5Ac(a2-6)Gal(b1-4)GlcNAc(b1-2)Man(a1-6)]Man(b1-4)GlcNAc(b1-4)GlcNAc
How it was run: as §1

[30] = target: Neu5Ac(a2-3)Gal(b1-4)GlcNAc(b1-2)[Neu5Ac(a2-3)Gal(b1-4)GlcNAc(b1-4)]Man(a1-3)[GlcNAc(b1-4)][Neu5Ac(a2-3)Gal(b1-4)GlcNAc(b1-2)[Neu5Ac(a2-3)Gal(b1-4)GlcNAc(b1-6)]Man(a1-6)]Man(b1-4)GlcNAc(b1-4)GlcNAc
How it was run: as §1

[31] = target: Neu5Ac(a2-3)Gal(b1-4)GlcNAc(b1-2)[Neu5Ac(a2-3)Gal(b1-4)GlcNAc(b1-4)]Man(a1-3)[GlcNAc(b1-4)][Neu5Ac(a2-3)Gal(b1-4)GlcNAc(b1-4)Man(a1-6)]Man(b1-4)GlcNAc(b1-4)GlcNAc
How it was run: as §1

[32] = target: Neu5Ac(a2-3)Gal(b1-4)GlcNAc(b1-2)[Neu5Ac(a2-3)Gal(b1-4)GlcNAc(b1-6)]Man(a1-6)[Neu5Ac(a2-3)Gal(b1-4)GlcNAc(b1-2)Man(a1-3)]Man(b1-4)GlcNAc(b1-4)GlcNAc
How it was run: as §1

[33] = target: Neu5Ac(a2-3)Gal(b1-4)GlcNAc(b1-2)[Neu5Ac(a2-3)Gal(b1-4)GlcNAc(b1-6)]Man(a1-6)[Neu5Ac(a2-3)Gal(b1-4)GlcNAc(b1-2)Man(a1-3)][GlcNAc(b1-4)]Man(b1-4)GlcNAc(b1-4)GlcNAc
How it was run: as §1

[34] = target: Neu5Ac(a2-3)Gal(b1-4)GlcNAc(b1-3)Gal
How it was run: as §1

[35] = target: Neu5Ac(a2-3)Gal(b1-4)GlcNAc(b1-3)Gal(b1-3)GlcNAc
How it was run: as §1

[36] = target: Neu5Ac(a2-3)Gal(b1-4)GlcNAc(b1-3)Gal(b1-4)GlcNAc
How it was run: as §1

[37] = target: Neu5Ac(a2-3)Gal(b1-4)GlcNAc(b1-3)Gal(b1-4)GlcNAc(b1-2)Man(a1-3)[Neu5Ac(a2-3)Gal(b1-4)GlcNAc(b1-3)Gal(b1-4)GlcNAc(b1-2)Man(a1-6)]Man(b1-4)GlcNAc(b1-4)GlcNAc
How it was run: as §1

[38] = target: Neu5Ac(a2-3)Gal(b1-4)GlcNAc(b1-3)Gal(b1-4)GlcNAc(b1-3)Gal(b1-4)GlcNAc
How it was run: as §1

[39] = target: Neu5Ac(a2-3)Gal(b1-4)GlcNAc(b1-3)Gal(b1-4)GlcNAc(b1-3)Gal(b1-4)GlcNAc(b1-2)Man(a1-3)[Neu5Ac(a2-3)Gal(b1-4)GlcNAc(b1-3)Gal(b1-4)GlcNAc(b1-3)Gal(b1-4)GlcNAc(b1-2)Man(a1-6)]GalNAc
How it was run: as §1

[40] = target: Neu5Ac(a2-3)Gal(b1-4)GlcNAc(b1-3)Gal(b1-4)GlcNAc(b1-3)GalNAc
How it was run: as §1

[41] = target: Neu5Ac(a2-3)Gal(b1-4)GlcNAc(b1-3)Gal(b1-4)GlcNAc(b1-3)[Neu5Ac(a2-3)Gal(b1-4)GlcNAc(b1-3)Gal(b1-4)GlcNAc(b1-6)]GalNAc
How it was run: as §1

[42] = target: Neu5Ac(a2-3)Gal(b1-4)GlcNAc(b1-3)Gal(b1-4)GlcNAc(b1-6)[Gal(b1-3)]GalNAc
How it was run: as §1

[43] = target: Neu5Ac(a2-3)Gal(b1-4)GlcNAc(b1-3)Gal(b1-4)[Fuc(a1-3)]GlcNAc
How it was run: as §1

[44] = target: Neu5Ac(a2-3)Gal(b1-4)GlcNAc(b1-3)GalNAc
How it was run: as §1

[45] = target: Neu5Ac(a2-3)Gal(b1-4)GlcNAc(b1-3)[Neu5Ac(a2-3)Gal(b1-4)GlcNAc(b1-6)]GalNAc
How it was run: as §1

B1: GS13599A-bth-520-23-520 (Bacteroides thetaiotaomicron) (protein)
chain: SEDTMDRINKDHDHTTSVASRFILADVITSTAFSNASGDINTYASSYIEYEVGVDNQLYYAEVRENEPSSSSTFNNSWNGIYSSLKNARIIIDQCGEGGRDHGNDVTRGMAEVMAAYNCALIADFFGDAPCSQAALVDEKGSPVYMTPKMDTQQEIYTQIISYLDDAIANLQKEDLADVTEQDFLYAGDADKWLKFAYGLKARYTMRLINRSSNKSADYEKVLDYVSKSFTSADDQAAFDIYDSNNINPFYGFYNSRAGFGASTSLGTKLLAYNDPRANRAFFTPIVDKKRSQVAANDPSLVPAPNGSPDQSTSKYGISAFVYAKTAPTLLMSYHELMFLKAEALCRLNRDAEDALKEAVVAGLLNAENSISIAIKELGSGLNTNSSEVITETSAGKYFDDVVKAKYAANPLQETMIQKYLAMWGASGEATETYNDFRRMKGLNENFITLTNPNNSSKFPLRYPYGNSDTAANPEVKAAYGNGDYVYSEPVWWAGGSR
Q: How did the “glycan array binding signal (z-score)” value [1] turn out when B1 was run?
A: -0.241

Q: And the “glycan array binding signal (z-score)” value [2]?
A: 0.392

Q: And the “glycan array binding signal (z-score)” value [3]?
A: 0.058

Q: And the “glycan array binding signal (z-score)” value [4]?
A: -0.697

Q: What about the “glycan array binding signal (z-score)” value [5] of the same binder?
A: -0.286

Q: And the “glycan array binding signal (z-score)” value [6]?
A: -0.306

Q: What about the “glycan array binding signal (z-score)” value [7] of the same binder?
A: 1.13

Q: And the “glycan array binding signal (z-score)” value [8]?
A: 0.566

Q: And the “glycan array binding signal (z-score)” value [9]?
A: -1.84

Q: And the “glycan array binding signal (z-score)” value [10]?
A: -0.995

Q: What about the “glycan array binding signal (z-score)” value [11] of the same binder?
A: -0.817

Q: What about the “glycan array binding signal (z-score)” value [12] of the same binder?
A: 0.129

Q: And the “glycan array binding signal (z-score)” value [13]?
A: -1.26

Q: What about the “glycan array binding signal (z-score)” value [14] of the same binder?
A: 0.168

Q: And the “glycan array binding signal (z-score)” value [15]?
A: -0.748

Q: And the “glycan array binding signal (z-score)” value [16]?
A: -0.362

Q: And the “glycan array binding signal (z-score)” value [17]?
A: 0.538

Q: And the “glycan array binding signal (z-score)” value [18]?
A: -0.103

Q: And the “glycan array binding signal (z-score)” value [19]?
A: -0.324

Q: What about the “glycan array binding signal (z-score)” value [20] of the same binder?
A: 0.09

Q: What about the “glycan array binding signal (z-score)” value [21] of the same binder?
A: 0.593

Q: What about the “glycan array binding signal (z-score)” value [22] of the same binder?
A: 0.559

Q: And the “glycan array binding signal (z-score)” value [23]?
A: -0.296

Q: What about the “glycan array binding signal (z-score)” value [24] of the same binder?
A: -0.216

Q: And the “glycan array binding signal (z-score)” value [25]?
A: -0.52

Q: What about the “glycan array binding signal (z-score)” value [26] of the same binder?
A: -1.27

Q: And the “glycan array binding signal (z-score)” value [27]?
A: 1.04

Q: And the “glycan array binding signal (z-score)” value [28]?
A: 1.04

Q: And the “glycan array binding signal (z-score)” value [29]?
A: 1.25

Q: And the “glycan array binding signal (z-score)” value [30]?
A: -0.639

Q: What about the “glycan array binding signal (z-score)” value [31] of the same binder?
A: -0.405

Q: What about the “glycan array binding signal (z-score)” value [32] of the same binder?
A: 1.12

Q: What about the “glycan array binding signal (z-score)” value [33] of the same binder?
A: -0.568

Q: And the “glycan array binding signal (z-score)” value [34]?
A: -1.47

Q: And the “glycan array binding signal (z-score)” value [35]?
A: -1.22

Q: What about the “glycan array binding signal (z-score)” value [36] of the same binder?
A: -0.547

Q: What about the “glycan array binding signal (z-score)” value [37] of the same binder?
A: -0.07

Q: What about the “glycan array binding signal (z-score)” value [38] of the same binder?
A: -0.557

Q: What about the “glycan array binding signal (z-score)” value [39] of the same binder?
A: 0.402

Q: What about the “glycan array binding signal (z-score)” value [40] of the same binder?
A: -1.17

Q: What about the “glycan array binding signal (z-score)” value [41] of the same binder?
A: -0.132

Q: And the “glycan array binding signal (z-score)” value [42]?
A: -0.807

Q: And the “glycan array binding signal (z-score)” value [43]?
A: -0.897

Q: And the “glycan array binding signal (z-score)” value [44]?
A: -0.349

Q: And the “glycan array binding signal (z-score)” value [45]?
A: -0.894
